“And” between values parts separate entries of the source, which are not always exact repeats. Equal entries are not always repeated. Out of some 320,000 compounds screened, about 22,000 (6.9%) were called active. The inconclusive results got no clear call from the source; some entries with a clear call stand among them for comparison. Calls come from the whole dose curve; as a rule, active = well fitted inhibition curve with a large enough effect; inconclusive = small, poorly fitted or top-dose-only effect, or another doubt; inactive = no such curve, though single readings can be large or run the other way. A potency beside an inconclusive call is a rough fit, not a confirmed value.
Assay: Primary qHTS for delayed death inhibitors of the malarial parasite plastid, 96 hour incubation
Conditions: P. falciparum luciferase reporter growth; series mostly up to 28.7 µM; activity change, negative = inhibition: at the top concentration
In short: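 Plates of compound plus infected erythrocytes (2% hematocrit, 0.05% parasitemia final) incubate 96 hours, 37 C, 5% CO2. Detection reagent added; reduced luminescence from the parasites' luciferase reporter flags inhibition.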
% is set by controls: 0 for no effect and ±100 for the full control effect; potency is the fitted concentration of half-maximal effect.

SMILES | activity change, negative = inhibition | Potency
CC(CCl)OC(C)CCl (centres undefined) | inactive: 36.8% | –
O=C(O)CCc1ccc(-c2ccccc2)n1CC(=O)Nc1cccc(C(F)(F)F)c1 | – | inconclusive: 5.22 µM [inhibitor, partial curve, poor fit]
CCOC(=O)N1CCC(NC(=O)c2ccc3c(c2)N=C(CC)c2ccccc2S3)CC1 | – | inconclusive: 18.5 µM [inhibitor, single point]
CCN(CC)C(=O)C1CCN(S(=O)(=O)c2c(C)noc2/C=C/c2cccc(C)c2)CC1 | – | inconclusive: 3.29 µM [inhibitor, full curve]
CCOC(=O)c1sc2nc(NC(=O)COc3ccccc3)sc2c1C | – | active: 1.65 µM
COc1cccc(O)c1CN1CCC(C(=O)Nc2ccc(-c3cccc(C)c3)cc2)CC1 | – | active: 4.15 µM
O=C(NCc1ccco1)C1CCN(S(=O)(=O)N2CCC3(CC2)OCCO3)CC1 | – | inconclusive: 10.4 µM [inhibitor, single point]
CCOc1ccccc1NC(=O)C(OC(=O)c1ccc(O)cc1)c1ccccc1 (centres undefined) | – | inconclusive: 11.7 µM [inhibitor, partial curve, poor fit]
CCCSC(=S)NC1CCS(=O)(=O)C1 (centres undefined) | – | inconclusive: 18.5 µM [inhibitor, single point]
Cc1cc(C(=O)O)c2ccccc2n1 | – | inconclusive: 2.08 µM [inhibitor, single point]
O=c1cc(O)nc(-c2ccc(Cl)cc2)s1 | inactive: 42.4% | –
CN1[C@@H]2CC[C@H]1CC(OC1c3ccccc3CCc3ccccc31)C2 (some centres undefined) | – | inconclusive: 5.1 µM [inhibitor, single point] and inconclusive: 13.1 µM [inhibitor, single point]
CN(Cc1ccc(F)cc1)Cc1nc(CCc2ccccc2)no1 | inactive: 0.617% | –
COc1ccc(CC(=O)n2[nH]c(=O)c3ccccc3c2=O)cc1OC | inactive: -4.31% | –
S=C(Nc1ccccc1)N1CCOCCOCCN(C(=S)Nc2ccccc2)CCOCCOCC1 | – | inconclusive: 10.4 µM [inhibitor, partial curve, poor fit]
CC(OC(=O)/C=C/c1ccc2ccccc2n1)C(=O)Nc1ccc(S(N)(=O)=O)cc1 (centres undefined) | inactive: 1.56% | –
CCc1ccc(CN(C)CC(O)COc2cccc3ccccc23)cc1 (centres undefined) | – | inconclusive: 4.65 µM [inhibitor, partial curve, poor fit]
CCOc1cc(C=O)cc(N=Nc2cccc([N+](=O)[O-])c2)c1O | – | inconclusive: 18.5 µM [inhibitor, single point]
NC(=S)N/N=C/c1ccc2ccccc2c1 | – | inconclusive: 2.33 µM [inhibitor, full curve, poor fit]
CCN(c1cccc(C)c1)c1ncnc2nc[nH]c12 | – | inconclusive: 10.4 µM [inhibitor, single point]
Nc1c(C(=O)c2ccc(Cl)cc2)sc2c1c(=O)[nH]c(=O)n2-c1ccccc1 | – | inconclusive: 14.7 µM [inhibitor, partial curve]
Cc1nn(-c2ccccc2)c(Cl)c1C(=O)OCC(=O)NCCc1ccccc1 | – | inconclusive: 5.86 µM [inhibitor, partial curve, poor fit]
COc1ccc(C2c3sc(=O)[nH]c3SC3C4CCC(C4)C23)cc1OC (centres undefined) | – | active: 9.28 µM

SMILES | activity change, negative = inhibition | Potency
CC1CCCCC1NC(=O)c1ccc(CSc2nc3ccncc3[nH]2)cc1 (centres undefined) | – | active: 5.22 µM
CCOC(=O)c1csc(-c2sccc2Br)n1 | inactive: 171% | –
Nn1c(SCC(=O)N2CCN(S(=O)(=O)c3ccc(Cl)cc3)CC2)nnc1-c1cccs1 | – | inconclusive: 13.1 µM [inhibitor, partial curve, poor fit]
CCOC(=O)C1(CCOc2ccccc2)CCN(Cc2ccc(C#CCCO)cc2)CC1 | – | inconclusive: 11.7 µM [inhibitor, single point]
NC(=O)NCCCC(=O)NCC(c1ccccc1Cl)c1c[nH]c2ccccc12 (centres undefined) | – | inconclusive: 9.28 µM [inhibitor, single point]
CCCCC1(C)NC(=O)N(CC(=O)Nc2cc(S(=O)(=O)N3CCOCC3)ccc2Cl)C1=O (centres undefined) | inactive: 3.31% | –
COCCCNc1nc2c(-c3cccc(C)c3)nnn2c2ccc(Cl)cc12 | inactive: 2.68% | –
COc1cc(/C=C/C(=O)NC(C)C2CC3CCC2C3)cc(OC)c1OC (centres undefined) | – | inconclusive: 5.22 µM [inhibitor, partial curve]
CC1(C)CC(=O)C=C(NCCN2CCN(C(=S)Nc3ccccc3)CC2)C1 | – | inconclusive: 1.47 µM [inhibitor, full curve]
Cc1nnc(SCC(=O)Nc2ccc3c(c2)OCCO3)s1 | inactive: -52.4% | –
CCOC(=O)C1CCN(C(=S)Nc2ccc(CC)cc2)CC1 | – | inconclusive: 18.5 µM [inhibitor, single point]
O=C(CN1c2cccc3cccc(c23)S1(=O)=O)Nc1ccc(S(=O)(=O)N2CCOCC2)cc1 | – | active: 13.1 µM
O=C1COc2ccc(S(=O)(=O)CCC(=O)N3CCN(c4ccccc4)CC3)cc2N1 | – | inconclusive: 3.7 µM [inhibitor, partial curve, poor fit]
Cc1ccc(/C=N/NC(=O)CSc2nc3ccccc3n2Cc2ccc(Cl)cc2)o1 | – | inconclusive: 10.4 µM [inhibitor, single point]
CN1C(=O)N(C)C(=O)C2(Cc3cc(NC(=O)c4ccc(F)cc4)ccc3N3CCCC32)C1=O (centres undefined) | – | active: 14.7 µM
COC(=O)c1cc(Br)ccc1N(Cc1cc(OC)cc(OC)c1)S(C)(=O)=O | – | inconclusive: 13.1 µM [inhibitor, single point]
CC(C(=O)NCC1CCCO1)N(C(=O)c1snc(C(N)=O)c1N)c1ccccc1 (centres undefined) | – | inconclusive: 9.28 µM [inhibitor, partial curve, poor fit]
O=C(CCC1CCCCC1)NCc1cccnc1 | inactive: -10.2% | –
CCCc1nnc(NC(=O)c2nc(S(=O)(=O)Cc3cccc(C)c3)ncc2Cl)s1 | – | inconclusive: 1.85 µM [inhibitor, partial curve, poor fit]
COc1ccc(NC(=O)Nc2c[nH]c(=O)[nH]c2=O)cc1OC | inactive: 4.03% | –
Cn1c(=O)cc(C(=O)N/N=C/c2ccc(F)cc2)[nH]c1=O | inactive: 22.7% | –
CCOc1ccccc1-c1noc(CCC(=O)Nc2cccnc2)n1 | – | active: 8.28 µM
CCOc1ccc(NC(=O)COc2ccc(C(=O)NC(C)c3ccc(S(N)(=O)=O)cc3)cc2OC)cc1 (centres undefined) | – | inconclusive: 11.7 µM [inhibitor, single point]

SMILES | activity change, negative = inhibition | Potency
Cc1cc(=O)[nH]c(N2CCCNCC2)n1 | inactive: -32.1% | –
CC(C)CNC(=O)c1nn(Cc2ccccc2)c(=O)c2ccccc12 | – | inconclusive: 10.4 µM [inhibitor, partial curve, poor fit]
Oc1ccc(N=Cc2sc3ccccc3c2Cl)cc1 | – | inconclusive: 10.4 µM [inhibitor, single point]
CCOC(=O)C(NC(=O)c1ccc(OC)cc1)(OCC1(CC)COC1)C(F)(F)F (centres undefined) | – | active: 13.1 µM
COc1cc(C(=O)OCCNC(=O)c2ccccc2)cc(OC)c1OC | inactive: -44.2% | –
Cc1cc(C)nc(SCC(=O)N/N=C/c2cccn2-c2cccc(C(F)(F)F)c2)n1 | – | active: 13.1 µM
Cc1ccn2c(NC(=O)c3ccccc3)c(-c3cccs3)nc2c1 | inactive: 50.5% | –
CC(C)(CO)NCc1ccc(Br)cc1 | – | inconclusive: 18.5 µM [inhibitor, single point]
CCN(CC)CCNc1nc2nonc2nc1NCCN(CC)CC | – | active: 11.7 µM
COc1ccc(CN(C(=O)c2nsc(Cl)c2Cl)C(C(=O)NC2CCCC2)c2ccc(OC)cc2)cc1 (centres undefined) | – | inconclusive: 9.28 µM [inhibitor, partial curve, poor fit]
O=C(O)COCC(=O)Nc1ccc2c(c1)CCC2 | – | inconclusive: 13.1 µM [inhibitor, single point]
Oc1ccc(/C=N/NC(=S)N2CCOCC2)cc1 | – | inconclusive: 9.28 µM [inhibitor, single point]
COc1ccccc1C(=O)N/N=C/c1ccc(Cl)s1 | – | inconclusive: 2.94 µM [inhibitor, partial curve, poor fit]
N=c1c(C(=O)NCC2CCCO2)cc2c(=O)n3ccccc3nc2n1Cc1ccc(Cl)cc1 (centres undefined) | – | inconclusive: 16.5 µM [inhibitor, single point]
Cc1ccccc1CN(c1ccc(C(=O)NCc2ccccn2)cc1)S(C)(=O)=O | inactive: 20.1% | –
O=C(CSc1nc(O)cc(=O)n1-c1ccc(Cl)c(Cl)c1)Nc1ccc(Cl)cc1Cl | inactive: 1.52% | –
CCOC(=O)[C@H]1[C@H]2COc3ccc(OC)cc3[C@@H]2N2C(=O)c3cc(F)c(F)cc3NC(=O)[C@@]12C | – | inconclusive: 18.5 µM [inhibitor, single point]
CC1(C)CC(O)(CNCc2ccc3c(c2)OCO3)CCO1 (centres undefined) | – | inconclusive: 0.0329 µM [inhibitor, full curve, poor fit]
COc1ccc(N2CCN(C(=O)CN3C(=O)NC(C)(C4CC4)C3=O)CC2)cc1 (centres undefined) | inactive: -22.8% | –
COc1ccccc1NS(=O)(=O)c1ccc(C(=O)N2CCCC(C(F)(F)F)C2)cc1 (centres undefined) | – | inconclusive: 11.7 µM [inhibitor, single point]
COc1ccc(CN(CC(O)COc2cccc3[nH]cc(C)c23)C(C)(C)C)cc1 (centres undefined) | – | inconclusive: 10.4 µM [inhibitor, single point]
COC(=O)c1ccc(N=C2S/C(=C\c3cc(C)n(-c4cccnc4)c3C)C(=O)N2C)cc1 | – | inconclusive: 6.57 µM [inhibitor, partial curve, poor fit]
CCOC(=O)C(C)/C(C)=N/NC(=O)c1cc2ccccc2cc1O (centres undefined) | – | inconclusive: 5.22 µM [inhibitor, single point]

A stretch of the results above, for reference:
SMILES | activity change, negative = inhibition | Potency
O=c1cc(O)nc(-c2ccc(Cl)cc2)s1 | inactive: 42.4% | –
CN1[C@@H]2CC[C@H]1CC(OC1c3ccccc3CCc3ccccc31)C2 (some centres undefined) | – | inconclusive: 5.1 µM [inhibitor, single point] and inconclusive: 13.1 µM [inhibitor, single point]
CN(Cc1ccc(F)cc1)Cc1nc(CCc2ccccc2)no1 | inactive: 0.617% | –
COc1ccc(CC(=O)n2[nH]c(=O)c3ccccc3c2=O)cc1OC | inactive: -4.31% | –
S=C(Nc1ccccc1)N1CCOCCOCCN(C(=S)Nc2ccccc2)CCOCCOCC1 | – | inconclusive: 10.4 µM [inhibitor, partial curve, poor fit]
CC(OC(=O)/C=C/c1ccc2ccccc2n1)C(=O)Nc1ccc(S(N)(=O)=O)cc1 (centres undefined) | inactive: 1.56% | –

Reference: PubChem BioAssay AID504834 (National Center for Advancing Translational Sciences (NCATS), 2011)
